Laboratory results from patent publication US20050112748A1.
Results are given in words; binding and its absence hold for the method and conditions named. Some results given as binding are weak or reduced against the parent protein; the word gives no strength.

By UniProt entry, the sequences of proteins in these tests, tags left out. Where a name states a change or a piece, a line headed by the entry shows the natural chain unless it says otherwise. Residues count along the entry.
UniProt Q95107, residues 1-275: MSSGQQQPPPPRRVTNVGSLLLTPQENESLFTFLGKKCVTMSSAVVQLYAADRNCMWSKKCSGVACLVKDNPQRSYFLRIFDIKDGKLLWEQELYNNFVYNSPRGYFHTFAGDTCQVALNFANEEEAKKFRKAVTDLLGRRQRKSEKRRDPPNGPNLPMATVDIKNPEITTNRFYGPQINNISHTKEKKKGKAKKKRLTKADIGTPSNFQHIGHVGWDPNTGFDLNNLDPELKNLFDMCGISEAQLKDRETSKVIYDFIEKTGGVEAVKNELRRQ
UniProt Q9ER71: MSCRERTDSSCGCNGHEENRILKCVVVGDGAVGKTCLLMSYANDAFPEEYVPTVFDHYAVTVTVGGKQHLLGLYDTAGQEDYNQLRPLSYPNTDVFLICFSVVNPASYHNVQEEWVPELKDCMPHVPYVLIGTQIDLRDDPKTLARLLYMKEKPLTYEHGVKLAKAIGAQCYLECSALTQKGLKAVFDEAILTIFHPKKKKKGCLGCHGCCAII

Key:
[1] = target: N-terminal portion of N-WASP (1st to 275th amino acid residues) fused to the Gal4 activation domain (pACT2) (UniProt Q95107); experiment: yeast two-hybrid, beta-galactosidase colony-lift filter assay
[2] = target: N-terminal portion of N-WASP (1st to 275th amino acid residues) fused to the Gal4 activation domain (pACT2) (UniProt Q95107); experiment: summary of the yeast two-hybrid interaction assay and the pull-down assay

binding [1] | Substance | binding [2]
binds | Cdc42 wild-type fused to the Gal4 DNA-binding domain (pGBT9) (from UniProt P04386 1-147; P60766 1-191) (enzyme) | binds
binds | Constitutively active mouse RhoT(G30V) fused to the Gal4 DNA-binding domain (pGBT9) (from UniProt Q9ER71 1-214) (enzyme) | 

Substance | binding [1] | binding [2]
Mouse Tc10 wild-type fused to the Gal4 DNA-binding domain (pGBT9) (from UniProt P04386 1-147; Q8R527 1-205) (enzyme) | binds | binds
